Measured values reported in article PMC9499541, “Ait1 regulates TORC1 signaling and localization in budding yeast” (eLife, 2022).

Chains of the proteins cited; added tags and fusions are not shown. Lines headed by an entry give the natural chain unless they say otherwise; changes in a name come on top.
UniProt P38873: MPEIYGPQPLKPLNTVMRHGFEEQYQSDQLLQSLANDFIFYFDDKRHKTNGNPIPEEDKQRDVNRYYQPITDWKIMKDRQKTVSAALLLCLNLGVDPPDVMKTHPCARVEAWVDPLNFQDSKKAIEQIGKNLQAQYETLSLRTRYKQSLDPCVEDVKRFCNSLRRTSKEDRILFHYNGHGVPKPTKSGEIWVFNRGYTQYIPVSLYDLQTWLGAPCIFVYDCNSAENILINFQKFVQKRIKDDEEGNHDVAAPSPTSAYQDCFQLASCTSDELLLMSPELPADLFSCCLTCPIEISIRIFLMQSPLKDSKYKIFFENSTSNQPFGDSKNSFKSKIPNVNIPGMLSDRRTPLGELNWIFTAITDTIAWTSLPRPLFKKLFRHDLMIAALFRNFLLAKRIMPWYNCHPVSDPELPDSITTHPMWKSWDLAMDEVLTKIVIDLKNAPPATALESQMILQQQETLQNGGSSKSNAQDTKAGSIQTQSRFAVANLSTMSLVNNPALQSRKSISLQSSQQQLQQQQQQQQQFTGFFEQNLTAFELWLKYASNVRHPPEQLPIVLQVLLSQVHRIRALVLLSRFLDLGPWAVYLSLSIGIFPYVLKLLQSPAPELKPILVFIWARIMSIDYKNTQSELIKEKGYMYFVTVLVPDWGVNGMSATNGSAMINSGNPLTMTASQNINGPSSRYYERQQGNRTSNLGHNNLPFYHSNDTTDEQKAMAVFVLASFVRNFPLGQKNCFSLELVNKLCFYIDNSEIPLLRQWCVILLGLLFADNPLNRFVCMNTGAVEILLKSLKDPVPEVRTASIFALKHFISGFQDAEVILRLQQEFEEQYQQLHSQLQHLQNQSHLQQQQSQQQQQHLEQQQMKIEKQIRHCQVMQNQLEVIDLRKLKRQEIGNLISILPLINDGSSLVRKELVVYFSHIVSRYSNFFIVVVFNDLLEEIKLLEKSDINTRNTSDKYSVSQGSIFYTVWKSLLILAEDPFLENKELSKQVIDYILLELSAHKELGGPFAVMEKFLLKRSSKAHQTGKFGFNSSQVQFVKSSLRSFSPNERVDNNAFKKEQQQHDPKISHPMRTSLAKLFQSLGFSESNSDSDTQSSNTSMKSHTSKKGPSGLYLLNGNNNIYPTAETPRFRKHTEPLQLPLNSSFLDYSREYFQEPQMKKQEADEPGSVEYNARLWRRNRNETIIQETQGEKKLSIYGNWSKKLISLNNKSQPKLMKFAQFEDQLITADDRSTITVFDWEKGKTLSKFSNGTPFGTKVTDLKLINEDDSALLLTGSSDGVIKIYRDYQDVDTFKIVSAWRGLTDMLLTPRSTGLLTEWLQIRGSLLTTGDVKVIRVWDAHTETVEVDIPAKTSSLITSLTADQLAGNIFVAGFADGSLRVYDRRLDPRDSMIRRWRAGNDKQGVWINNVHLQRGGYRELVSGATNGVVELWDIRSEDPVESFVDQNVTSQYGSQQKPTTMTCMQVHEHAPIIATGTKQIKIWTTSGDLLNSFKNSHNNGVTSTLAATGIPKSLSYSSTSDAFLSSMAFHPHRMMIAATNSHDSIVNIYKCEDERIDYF
UniProt P38742: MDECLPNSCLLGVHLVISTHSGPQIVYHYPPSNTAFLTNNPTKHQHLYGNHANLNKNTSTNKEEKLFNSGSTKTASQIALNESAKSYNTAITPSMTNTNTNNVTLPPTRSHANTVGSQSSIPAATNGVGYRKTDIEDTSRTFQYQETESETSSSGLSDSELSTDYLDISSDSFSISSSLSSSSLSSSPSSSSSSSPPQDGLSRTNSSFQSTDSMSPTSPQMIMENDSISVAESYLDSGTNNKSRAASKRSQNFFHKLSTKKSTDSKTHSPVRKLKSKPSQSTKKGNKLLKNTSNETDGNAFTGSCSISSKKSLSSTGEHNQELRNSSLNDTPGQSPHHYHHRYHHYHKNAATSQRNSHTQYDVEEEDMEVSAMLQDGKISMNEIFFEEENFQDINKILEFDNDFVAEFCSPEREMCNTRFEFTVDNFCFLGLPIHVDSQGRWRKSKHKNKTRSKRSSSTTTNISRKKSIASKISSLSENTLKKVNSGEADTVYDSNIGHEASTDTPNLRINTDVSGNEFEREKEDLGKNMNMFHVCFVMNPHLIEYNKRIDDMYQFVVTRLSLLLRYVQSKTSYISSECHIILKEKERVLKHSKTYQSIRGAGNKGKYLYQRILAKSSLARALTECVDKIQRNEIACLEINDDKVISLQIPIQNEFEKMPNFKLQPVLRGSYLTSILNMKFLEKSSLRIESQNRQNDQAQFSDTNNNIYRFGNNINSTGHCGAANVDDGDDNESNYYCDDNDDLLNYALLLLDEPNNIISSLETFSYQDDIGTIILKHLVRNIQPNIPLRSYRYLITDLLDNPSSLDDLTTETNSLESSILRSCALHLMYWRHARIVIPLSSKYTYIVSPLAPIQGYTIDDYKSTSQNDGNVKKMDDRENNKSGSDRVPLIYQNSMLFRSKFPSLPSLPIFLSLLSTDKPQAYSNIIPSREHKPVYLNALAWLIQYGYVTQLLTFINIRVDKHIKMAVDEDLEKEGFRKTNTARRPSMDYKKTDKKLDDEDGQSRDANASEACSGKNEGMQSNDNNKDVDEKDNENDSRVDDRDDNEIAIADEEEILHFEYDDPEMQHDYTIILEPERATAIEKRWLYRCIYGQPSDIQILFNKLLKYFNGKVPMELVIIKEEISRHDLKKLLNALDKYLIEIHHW
UniProt Q02948: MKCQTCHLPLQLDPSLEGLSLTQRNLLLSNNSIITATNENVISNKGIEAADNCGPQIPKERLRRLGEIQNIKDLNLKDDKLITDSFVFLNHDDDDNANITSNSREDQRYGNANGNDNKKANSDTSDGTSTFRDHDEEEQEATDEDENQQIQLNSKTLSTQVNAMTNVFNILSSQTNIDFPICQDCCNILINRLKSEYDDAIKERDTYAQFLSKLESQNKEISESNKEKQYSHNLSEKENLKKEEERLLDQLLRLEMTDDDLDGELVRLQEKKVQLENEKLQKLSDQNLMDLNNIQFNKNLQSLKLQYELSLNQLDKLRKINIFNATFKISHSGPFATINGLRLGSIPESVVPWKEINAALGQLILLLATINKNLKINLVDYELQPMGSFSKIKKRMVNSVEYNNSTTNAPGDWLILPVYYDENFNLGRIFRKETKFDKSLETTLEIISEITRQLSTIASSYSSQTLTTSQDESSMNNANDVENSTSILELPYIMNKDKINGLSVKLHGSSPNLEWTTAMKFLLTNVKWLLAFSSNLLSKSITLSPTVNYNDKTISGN
UniProt Q00582: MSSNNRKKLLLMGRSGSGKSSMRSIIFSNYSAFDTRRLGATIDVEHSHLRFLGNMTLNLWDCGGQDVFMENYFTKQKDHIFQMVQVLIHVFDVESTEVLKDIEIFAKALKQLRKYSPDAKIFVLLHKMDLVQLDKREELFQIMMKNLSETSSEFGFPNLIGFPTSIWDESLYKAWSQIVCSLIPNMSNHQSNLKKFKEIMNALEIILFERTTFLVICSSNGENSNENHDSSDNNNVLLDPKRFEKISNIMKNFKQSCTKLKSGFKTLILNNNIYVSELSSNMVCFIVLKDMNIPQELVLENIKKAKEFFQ
UniProt P47170: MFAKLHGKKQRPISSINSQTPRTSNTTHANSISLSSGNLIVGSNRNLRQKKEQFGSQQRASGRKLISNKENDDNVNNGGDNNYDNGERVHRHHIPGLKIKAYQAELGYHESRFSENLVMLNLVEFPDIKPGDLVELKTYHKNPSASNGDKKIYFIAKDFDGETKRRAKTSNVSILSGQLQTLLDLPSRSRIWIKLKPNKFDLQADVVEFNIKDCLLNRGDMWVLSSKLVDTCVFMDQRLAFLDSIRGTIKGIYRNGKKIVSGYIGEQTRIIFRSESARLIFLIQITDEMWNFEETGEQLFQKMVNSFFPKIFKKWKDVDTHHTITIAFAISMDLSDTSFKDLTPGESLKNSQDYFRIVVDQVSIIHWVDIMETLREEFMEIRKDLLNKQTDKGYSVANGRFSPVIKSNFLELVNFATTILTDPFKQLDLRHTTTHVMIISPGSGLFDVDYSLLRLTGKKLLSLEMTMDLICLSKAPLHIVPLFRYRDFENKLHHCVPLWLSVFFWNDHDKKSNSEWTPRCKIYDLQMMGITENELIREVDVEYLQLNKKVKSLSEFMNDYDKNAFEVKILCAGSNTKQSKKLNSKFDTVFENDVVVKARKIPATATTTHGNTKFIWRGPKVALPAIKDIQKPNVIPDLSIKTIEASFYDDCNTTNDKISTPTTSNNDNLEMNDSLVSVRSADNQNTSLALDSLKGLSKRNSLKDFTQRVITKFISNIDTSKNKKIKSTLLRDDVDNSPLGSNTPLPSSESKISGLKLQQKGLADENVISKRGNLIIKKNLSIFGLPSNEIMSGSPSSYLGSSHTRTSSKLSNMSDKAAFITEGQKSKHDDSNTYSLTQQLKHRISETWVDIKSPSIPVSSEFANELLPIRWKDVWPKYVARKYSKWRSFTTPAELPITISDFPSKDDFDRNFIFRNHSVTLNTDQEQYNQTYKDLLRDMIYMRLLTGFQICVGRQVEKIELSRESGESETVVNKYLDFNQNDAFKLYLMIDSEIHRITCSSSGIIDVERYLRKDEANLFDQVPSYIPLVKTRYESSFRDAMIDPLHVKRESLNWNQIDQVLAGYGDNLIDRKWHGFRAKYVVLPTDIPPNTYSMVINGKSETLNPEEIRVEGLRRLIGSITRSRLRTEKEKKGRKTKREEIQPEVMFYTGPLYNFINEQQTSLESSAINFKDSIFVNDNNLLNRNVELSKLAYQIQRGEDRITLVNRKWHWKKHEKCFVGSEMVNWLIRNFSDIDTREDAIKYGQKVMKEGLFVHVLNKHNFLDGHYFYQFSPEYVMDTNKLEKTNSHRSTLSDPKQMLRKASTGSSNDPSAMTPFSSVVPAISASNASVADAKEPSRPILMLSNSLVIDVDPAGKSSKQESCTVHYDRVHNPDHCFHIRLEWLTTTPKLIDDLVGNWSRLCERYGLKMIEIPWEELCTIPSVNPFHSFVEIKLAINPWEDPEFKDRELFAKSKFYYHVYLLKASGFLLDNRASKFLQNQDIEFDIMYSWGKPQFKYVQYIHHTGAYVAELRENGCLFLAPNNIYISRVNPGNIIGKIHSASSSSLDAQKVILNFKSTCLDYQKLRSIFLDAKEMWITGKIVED

B1: Vtc5 (protein, UniProt P38966 1-869)
chain: MKFEDRILNKSIPEWKFYNINYEKLKVAIKKVTAYDYDNPNDSGMEKLLNQCSVAFDQEFQNVNLFVSLKIKEISTRILSVESSIIDFSKGLNKTSRNRFNLRKLKIINAHVDDCNFELQLLSRFLIIQRIALRKLFKKLLNEFPQDSENPLTASEYVTSIRNSESLRNGHEGISFMKLDLDPYLLEVSLIVDVLHDLENKLEDATEPAVEQRSLNRSDESAHTSSSPEANNSSLPASPRSIPLLSNKKTSKMIDSSLEFDTALIDKAENLGRFLLSSEDIEGLKFMLLNIGFRIIDDSIISTSKEILDTTDNINSAGNKSIRSAKSFNDLQHTLSLSKQKNILPSAVQSNEKYVSISILDTVGNEGSPLLLTDDNINQHPNMIVSSTAEDTCIVMCHVGGLRNHVVTNDLLLRDVKNILSAMRSGNDTKNISALINSLDPSPISKIALEWIQSHRLKTIEPKLDFKRTRFISADNGDIYLIALDESITIGNVSTLPFPILEIKKLSRSSGLSQTAINEDNKFKQLMKSVVTNEFQCSLIPPDLTTWKICLELVHSNELQNDLFQLLLRDQYKLNSDDSLSPDEFFQLGKDRLEEEFDLTGPINNSQGSVDSGRRVRIHKKSKQSDNETKKKPIRYWNEFDEQEEDNLDNAFYIDTNGSRSTTDNEESLLLRNSPPDYGFILFSRNFINRTYDFCEKLRNLIRHDKKTSPDLFQNSKHPHCSSTNYGSVASFGSQSTSASYDDVQRYLQYQQQDIEDSQSIYEYRHDEVVTFLYLSALLTSCIMASVCLGIVLSLFRGQSNNEIDLEIQNILIAIIIISLLVSLILICACLLLLFSRFTLAPIWHYVGCFTMFFSVTGTVCYGMIEIFF
B2: Seh1 (protein, UniProt P53011 1-349)
chain: MQPFDSGHDDLVHDVVYDFYGRHVATCSSDQHIKVFKLDKDTSNWELSDSWRAHDSSIVAIDWASPEYGRIIASASYDKTVKLWEEDPDQEECSGRRWNKLCTLNDSKGSLYSVKFAPAHLGLKLACLGNDGILRLYDALEPSDLRSWTLTSEMKVLSIPPANHLQSDFCLSWCPSRFSPEKLAVSALEQAIIYQRGKDGKLHVAAKLPGHKSLIRSISWAPSIGRWYQLIATGCKDGRIRIFKITEKLSPLASEESLTNSNMFDNSADVDMDAQGRSDSNTEEKAELQSNLQVELLSEHDDHNGEVWSVSWNLTGTILSSAGDDGKVRLWKATYSNEFKCMSVITAQQ
B3: Vsb1 (protein, UniProt P53273 1-1036)
chain: MGRTIRRRRSNSSLSEAISVSLGINQDSSVNKMHRASVSAMSPPLCRSYMSGFFTGGNSPMINNLSDSKLPISNKQHPKVIHGSENLHRQTAQLSNEFCSSSVEENSPTIKDYMDIIGNGDRKDDQSMRTIEENIDEEYSDEYSRLLLSPASSNVDDDRNRGLQNSSLPELEDGYAGGYQSLRPSHNLRFRPRNLWHMCTSFPSKFAHYLPAAVLGLLLNILDALSYGMIIFPITEPVFSHLGPTGISMFYISTIISQAVYSGGWSSFPSGIGSEMIEITPFYHTMALAIKEALAGNDDEIITTTIFCYVISSMLTGVVFYALGKLRLGKIVGFFPRHILIGCIGGVGYFLIITGIEVTTRVAKFEYSWPFFSGLFTDYDTLAKWLLPVLLTVVLIGTQRYFKNSLVLPSFYILTLVLFHFIVAIIPTLSLDALRQAGWIFPIANSDSKWYDHYRLFNVHKVHWSLVLQQIPTMMALTFFGILHVPINVPALAMSLQMDKYDVDRELIAHGYSNFFSGLLGSVQNYLVYTNSVLFIRAGADSPFAGFLLIALTICIMIIGPVIISFIPICIVGSLIFLLGYELLVEALVDTWNKLNRFEYLTVVIIVFTMGIFDFVLGIIVGILIACFSFLVDSTKLQTINGEYNGNVARSTVYRDYVQTKFLDGIGEQIYVLKLQNLLFFGTIISIEEKIERLLQISNKDATKRRIKYLILDFKNINADNIDYSAAEGFNRIKRFTETKRIKLIISSIKERDRIYNAFNNVGLLNDVELFADLNSALEWCENEFLFQYKQLRKKAKERLEEGKQNNVVSAVIAATKNKKIDTIGNGLNRGSNGDTARNLMSLPTNTPRNYQILSVAQNVFVNDEQAVKNFKKEYKDDEPVLPILLFALKQYRPDIISEVQKVREKEIKFWAQLCPYFTRRRLASQSHLLHADNIFFLVETGMLKATYELPQGTLYEIFSNGTCFGKIIAPGNAMPREQKLTIETETDSVLWVIDSSSLNKLKEDNLALYVEVALMVMCIKDTRFKELLGYTLVSA
B4: Sea2/Rtc1 (protein, UniProt Q08281 1-1341)
chain: MSLSPHVENASIPKGSTPIPKNRNVSSIGKGEFLGSSSSNNSSFRMNHYSNSGQPSVLDSIRRPNLTPTFSYSNGVYMPESHRTSSFNDSYLPYDKNPYAKTTGSMSNKSNMKIKTKKNAINTNTRKSSGLIYTTKVDKELSSIDKVNDPNINGLVCAGKTHLGLYKFSPSDRSIKCVHDFITPNSNTSTRGTTSLLPKLSKRTRQNKFSTIADVKTGFNNYKNCIAVCNNSTAISIYDLNKSSSIDNPLITSLCEHTRSINSFDFNMVESNLIISGGQDSCVKIWDLRSNKSKSSNRSDISINTASDSIRDVKWMPGYNFASKNDQGSSTYGNLKSGYKFASIHDSGYLLKFDLRQPAQYEKKLNAHTGPGLCLNWHPNQEYIATGGRDGKCCLWFVGDNANAAENTVLNYGNSPSLHAPNTSLNNSGSLAFPKLTINTGYPVTKLKFKPAYSSNIYNSLLGISSMGDEAEVRIYSLARKYIPKHVLLSETPSLGLVWWDENLIFNIDKGTRINGWDINKEPTVLENLSKNTTTWRDLDGNGLLSVDQEIGSYEVVEPELQPTSSTTCKKHPGTIKNPKNGNPENQGIIGGIKKGFSHTGLTSFTPERPPTLKAGPTFSTKSLTLASGASSFNSSSASLTSLTPQTENREEIAIEPPCIITLDIPQIFNNIRLTKIAHSRKKNVISESSSMKNSPVEKFKYLARQLKFSYIREHNVSDSADTAYKNDIENIDVVKNATETHGDNTTTTNNNDDGDDDDDDDDDDKIIESHLLKKYNFPENNTWATLMNEKVNNKKSKRNSSSSREFDEKDVRSSISSISASRQSHDRARKIDKNVEAELQEKIQTLVDLISIATHNASVYLSIDDLTNFKIWILIRDSLLWDLKWMTSSQISSDNASNMDANESSDFEAGENLKTGKEFPEEDGAGTSGAESLVEERPQAFRANSDEPSDAEKKPVSKLKEQLKNTEIIPYAQPNEDSDEVLTKLKELQNQRLESRTKMGETVSDDVIIEEDEHEHQEEEQPHDSPTKSAQFHASPIAKSIPILQKREHRKSFIDTFMLHSPNGYNGDTDIGNEDDNISPRFTYNSVSPRSKVSSLQSYATTTSQLETFKKLSSHTAPIIGSPRHAPSRPDSIGREQLSSSLTKKLAKCKKIIADPPWDTKKLIKQLYNQATETGNVVLTVNILFLFQTIYQITEIDIAKDAIAHFLLLLHRYELFGIAADVLKYCPFEDIMGSEGDQSSIRLFCERCGELITNESSKEKLRAEAQQTGNKKIMDKFGYWYCDSCKKKNTSCVLCERPLKKLTMVILPCGHEGHFQCIQEWFLDENEQECPGGCPGVAFI

molecular target: Kog1-FLAG (S. cerevisiae) (UniProt P38873); test: affinity purification with mass spectrometry; Kog1-FLAG captured on anti-FLAG beads from lysate treated with the cleavable crosslinker DSP and 1% digitonin; mock IP from a Kog1-HA strain; 11 experiments in nine conditions (log phase, stress and starvation); crosslinks broken before mass …

Row | binding | Molecule
1 | binds | Npr3 (from UniProt P38742)
2 | binds | Vps30 (from UniProt Q02948 1-557)
3 | binds | Gtr1 (from UniProt Q00582 1-310)
4 | binds | Iml1 (from UniProt P47170 1-1584)
5 | binds | B1
6 | binds | B2
7 | binds | B3
8 | binds | B4

These are yes or no findings as the source states them, for the method shown. Binding seen in cells or lysates may run through a third protein. Here binding means that the protein was enriched with, or labelled near, the bait; the list need not be complete.
